Experimental data taken from patent publication US12448389B2, “BRM targeting compounds and associated methods of use” (Prelude Therapeutics Incorporated, priority 2020, dated 2025).

Amino acid sequences for entries named in this document (tags omitted).
UniProt P51531, whole entry: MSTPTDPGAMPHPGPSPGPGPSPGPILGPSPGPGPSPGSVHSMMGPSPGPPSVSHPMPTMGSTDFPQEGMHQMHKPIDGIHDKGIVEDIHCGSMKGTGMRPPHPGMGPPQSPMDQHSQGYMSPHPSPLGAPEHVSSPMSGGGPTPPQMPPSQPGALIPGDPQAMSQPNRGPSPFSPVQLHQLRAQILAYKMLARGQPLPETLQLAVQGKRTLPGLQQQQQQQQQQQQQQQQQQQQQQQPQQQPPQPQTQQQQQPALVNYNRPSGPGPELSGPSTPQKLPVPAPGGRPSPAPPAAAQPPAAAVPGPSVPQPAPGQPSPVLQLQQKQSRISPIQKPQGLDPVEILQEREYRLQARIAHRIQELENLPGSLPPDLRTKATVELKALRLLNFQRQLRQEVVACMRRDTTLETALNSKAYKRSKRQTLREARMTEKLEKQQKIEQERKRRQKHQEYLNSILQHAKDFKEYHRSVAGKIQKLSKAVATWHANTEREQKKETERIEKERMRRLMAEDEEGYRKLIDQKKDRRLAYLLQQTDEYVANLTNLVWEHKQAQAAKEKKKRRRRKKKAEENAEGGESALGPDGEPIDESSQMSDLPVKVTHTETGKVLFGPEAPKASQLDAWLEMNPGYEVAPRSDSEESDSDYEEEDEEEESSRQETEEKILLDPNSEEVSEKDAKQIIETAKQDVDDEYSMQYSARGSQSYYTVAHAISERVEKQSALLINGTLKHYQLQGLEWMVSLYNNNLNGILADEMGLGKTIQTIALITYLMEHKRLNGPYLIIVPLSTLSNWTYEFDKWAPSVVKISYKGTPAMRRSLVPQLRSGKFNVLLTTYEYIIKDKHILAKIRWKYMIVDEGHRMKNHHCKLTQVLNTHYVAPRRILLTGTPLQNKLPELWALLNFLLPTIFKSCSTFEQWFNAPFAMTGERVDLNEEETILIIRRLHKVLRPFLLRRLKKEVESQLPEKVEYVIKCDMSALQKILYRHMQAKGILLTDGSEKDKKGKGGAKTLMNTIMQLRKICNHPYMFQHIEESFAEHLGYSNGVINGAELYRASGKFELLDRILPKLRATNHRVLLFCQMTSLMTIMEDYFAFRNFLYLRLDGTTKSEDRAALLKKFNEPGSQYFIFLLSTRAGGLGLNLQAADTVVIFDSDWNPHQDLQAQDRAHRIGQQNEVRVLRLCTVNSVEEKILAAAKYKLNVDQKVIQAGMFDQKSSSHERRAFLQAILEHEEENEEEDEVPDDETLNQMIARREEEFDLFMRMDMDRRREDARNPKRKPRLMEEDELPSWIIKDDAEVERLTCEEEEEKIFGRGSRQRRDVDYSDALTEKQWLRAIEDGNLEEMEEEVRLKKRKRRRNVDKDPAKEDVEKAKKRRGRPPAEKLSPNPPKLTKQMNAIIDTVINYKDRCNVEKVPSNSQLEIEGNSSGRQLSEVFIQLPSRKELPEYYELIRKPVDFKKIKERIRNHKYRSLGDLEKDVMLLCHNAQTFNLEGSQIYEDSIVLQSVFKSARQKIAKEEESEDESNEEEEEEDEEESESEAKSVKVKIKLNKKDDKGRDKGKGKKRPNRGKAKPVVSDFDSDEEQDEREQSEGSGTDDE
UniProt P51532, whole entry: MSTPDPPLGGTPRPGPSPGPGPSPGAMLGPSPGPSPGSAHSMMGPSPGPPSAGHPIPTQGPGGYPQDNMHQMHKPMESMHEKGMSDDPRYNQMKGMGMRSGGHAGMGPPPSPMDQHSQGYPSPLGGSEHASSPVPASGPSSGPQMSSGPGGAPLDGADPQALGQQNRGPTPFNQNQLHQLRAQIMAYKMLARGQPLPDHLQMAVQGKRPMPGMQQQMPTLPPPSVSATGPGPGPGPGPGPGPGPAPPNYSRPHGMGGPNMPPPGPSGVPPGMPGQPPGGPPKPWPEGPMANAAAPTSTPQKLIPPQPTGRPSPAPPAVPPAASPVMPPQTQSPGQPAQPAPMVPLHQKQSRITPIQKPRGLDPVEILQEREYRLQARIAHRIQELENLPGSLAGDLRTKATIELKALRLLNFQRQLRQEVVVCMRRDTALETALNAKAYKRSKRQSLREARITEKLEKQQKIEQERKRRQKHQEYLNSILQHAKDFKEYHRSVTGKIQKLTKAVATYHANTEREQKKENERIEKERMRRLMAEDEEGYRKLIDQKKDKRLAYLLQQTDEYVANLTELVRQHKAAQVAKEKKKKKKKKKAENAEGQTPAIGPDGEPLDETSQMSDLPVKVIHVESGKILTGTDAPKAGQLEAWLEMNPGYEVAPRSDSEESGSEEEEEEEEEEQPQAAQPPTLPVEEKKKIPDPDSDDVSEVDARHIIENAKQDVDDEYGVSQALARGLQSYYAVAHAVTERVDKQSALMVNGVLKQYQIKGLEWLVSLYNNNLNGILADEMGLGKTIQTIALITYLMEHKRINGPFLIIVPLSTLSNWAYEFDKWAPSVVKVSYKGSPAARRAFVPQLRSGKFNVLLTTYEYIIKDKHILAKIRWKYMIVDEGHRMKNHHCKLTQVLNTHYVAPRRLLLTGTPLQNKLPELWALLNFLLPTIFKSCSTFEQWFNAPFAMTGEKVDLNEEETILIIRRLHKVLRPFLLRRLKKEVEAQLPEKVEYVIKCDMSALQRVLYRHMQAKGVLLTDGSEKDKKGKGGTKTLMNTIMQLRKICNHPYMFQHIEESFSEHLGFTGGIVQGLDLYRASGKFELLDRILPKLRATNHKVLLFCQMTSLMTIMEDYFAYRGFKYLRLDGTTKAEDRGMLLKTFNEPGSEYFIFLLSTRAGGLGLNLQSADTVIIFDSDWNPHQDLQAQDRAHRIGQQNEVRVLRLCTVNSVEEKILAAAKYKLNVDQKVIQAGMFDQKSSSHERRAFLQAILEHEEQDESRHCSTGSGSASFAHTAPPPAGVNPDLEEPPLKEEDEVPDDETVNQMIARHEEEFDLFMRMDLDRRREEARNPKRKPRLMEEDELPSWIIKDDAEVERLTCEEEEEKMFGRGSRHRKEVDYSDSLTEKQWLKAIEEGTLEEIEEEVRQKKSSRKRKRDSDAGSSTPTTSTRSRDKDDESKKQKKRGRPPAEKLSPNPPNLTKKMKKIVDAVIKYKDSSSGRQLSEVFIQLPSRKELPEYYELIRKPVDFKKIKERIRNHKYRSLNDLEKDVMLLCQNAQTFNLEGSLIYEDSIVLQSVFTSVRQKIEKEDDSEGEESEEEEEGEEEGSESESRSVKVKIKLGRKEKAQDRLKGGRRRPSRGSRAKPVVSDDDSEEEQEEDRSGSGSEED

Legend:
SMARCA2-HiBiT = SMARCA2-HiBiT (Homo sapiens, UniProt P51531); experiment: SMARCA2 HiBiT degradation assay in HeLa cells; details: read-out: HeLa_HiBit-SM2 DC50, 18 hours incubation
Description: (§1) HiBiT peptide knock-in of SMARCA2 in LgBiT expressing HEK293T cells was performed by CRISPR-mediated tagging system as described Promega. The homozygous HiBiT knock-in on c-terminus SMARCA2 was confirmed by sanger sequence. SMARCA2-HiBiT knock-in Hela monoclonal cell (CS302366) and SMARCA4-HiBiT knock-in Hela monoclonal cell (CS3023226) were purchased from Promega. The heterozygous HiBiT-knock-in was confirmed by sanger sequence in both SMARCA2-HiBiT and SMARCA4-HiBiT monoclonal cells.
(§2) SMARCA2 HiBiT and SMARCA4 HiBiT Degradation Assay in HeLa Cells
(§3) Dispense 10 ul aliquot of prepared Hela-SMARCA2-HiBiT or Hela-SMARCA4-HiBiT cells (1:1 ratio of cells:Trypan Blue (#1450013, Bio-Rad)) onto cell counting slide (#145-0011, Bio-Rad) and obtain cell density and cell viability using cell counter (TC20, Bio-Rad). Remove appropriate volume of resuspended cells from culture flask to accommodate 2500 cells/well @20 μL/well. Transfer Hela-HiBiT cells to 50 mL conical (#430290, Corning). Spin down at 1000 rpm for 5 min using tabletop centrifuge (SPINCHRON 15, Beckman). […] Read plates on microplate reader (Envision 2105, PerkinElmer) using 384 well Ultra-Sensitive luminescence mode. […]

SMARCA4-HiBiT = SMARCA4-HiBiT (Homo sapiens, UniProt P51532); experiment: SMARCA4 HiBiT degradation assay in HeLa cells; details: read-out: HeLa-HiBit-SM4 DC50, 18 hours incubation
Description: as §1, §2, §3

Structure (SMILES): CC12CN(CC3CCN(c4ccc5c(c4)C(=O)N(C4CCC(=O)NC4=O)C5=O)CC3)CC1C2CN1CCN2c3cc(-c4ccccc4O)nnc3NC[C@H]2C1 (some centres unmarked)
- DC50 (SMARCA2-HiBiT): < 10 nM
- DC50 (SMARCA4-HiBiT): 10 to 100 nM and < 10 nM

“And” between values parts separate entries of the source, which are not always exact repeats. Identical values can stand only once. The structures given here were assigned with low confidence; some may be wrong.
